This passage reports binding results from publication PMC10627786.

Sequences of proteins named here, by UniProt entry; tags and fusion partners are left off.
UniProt Q96RL7: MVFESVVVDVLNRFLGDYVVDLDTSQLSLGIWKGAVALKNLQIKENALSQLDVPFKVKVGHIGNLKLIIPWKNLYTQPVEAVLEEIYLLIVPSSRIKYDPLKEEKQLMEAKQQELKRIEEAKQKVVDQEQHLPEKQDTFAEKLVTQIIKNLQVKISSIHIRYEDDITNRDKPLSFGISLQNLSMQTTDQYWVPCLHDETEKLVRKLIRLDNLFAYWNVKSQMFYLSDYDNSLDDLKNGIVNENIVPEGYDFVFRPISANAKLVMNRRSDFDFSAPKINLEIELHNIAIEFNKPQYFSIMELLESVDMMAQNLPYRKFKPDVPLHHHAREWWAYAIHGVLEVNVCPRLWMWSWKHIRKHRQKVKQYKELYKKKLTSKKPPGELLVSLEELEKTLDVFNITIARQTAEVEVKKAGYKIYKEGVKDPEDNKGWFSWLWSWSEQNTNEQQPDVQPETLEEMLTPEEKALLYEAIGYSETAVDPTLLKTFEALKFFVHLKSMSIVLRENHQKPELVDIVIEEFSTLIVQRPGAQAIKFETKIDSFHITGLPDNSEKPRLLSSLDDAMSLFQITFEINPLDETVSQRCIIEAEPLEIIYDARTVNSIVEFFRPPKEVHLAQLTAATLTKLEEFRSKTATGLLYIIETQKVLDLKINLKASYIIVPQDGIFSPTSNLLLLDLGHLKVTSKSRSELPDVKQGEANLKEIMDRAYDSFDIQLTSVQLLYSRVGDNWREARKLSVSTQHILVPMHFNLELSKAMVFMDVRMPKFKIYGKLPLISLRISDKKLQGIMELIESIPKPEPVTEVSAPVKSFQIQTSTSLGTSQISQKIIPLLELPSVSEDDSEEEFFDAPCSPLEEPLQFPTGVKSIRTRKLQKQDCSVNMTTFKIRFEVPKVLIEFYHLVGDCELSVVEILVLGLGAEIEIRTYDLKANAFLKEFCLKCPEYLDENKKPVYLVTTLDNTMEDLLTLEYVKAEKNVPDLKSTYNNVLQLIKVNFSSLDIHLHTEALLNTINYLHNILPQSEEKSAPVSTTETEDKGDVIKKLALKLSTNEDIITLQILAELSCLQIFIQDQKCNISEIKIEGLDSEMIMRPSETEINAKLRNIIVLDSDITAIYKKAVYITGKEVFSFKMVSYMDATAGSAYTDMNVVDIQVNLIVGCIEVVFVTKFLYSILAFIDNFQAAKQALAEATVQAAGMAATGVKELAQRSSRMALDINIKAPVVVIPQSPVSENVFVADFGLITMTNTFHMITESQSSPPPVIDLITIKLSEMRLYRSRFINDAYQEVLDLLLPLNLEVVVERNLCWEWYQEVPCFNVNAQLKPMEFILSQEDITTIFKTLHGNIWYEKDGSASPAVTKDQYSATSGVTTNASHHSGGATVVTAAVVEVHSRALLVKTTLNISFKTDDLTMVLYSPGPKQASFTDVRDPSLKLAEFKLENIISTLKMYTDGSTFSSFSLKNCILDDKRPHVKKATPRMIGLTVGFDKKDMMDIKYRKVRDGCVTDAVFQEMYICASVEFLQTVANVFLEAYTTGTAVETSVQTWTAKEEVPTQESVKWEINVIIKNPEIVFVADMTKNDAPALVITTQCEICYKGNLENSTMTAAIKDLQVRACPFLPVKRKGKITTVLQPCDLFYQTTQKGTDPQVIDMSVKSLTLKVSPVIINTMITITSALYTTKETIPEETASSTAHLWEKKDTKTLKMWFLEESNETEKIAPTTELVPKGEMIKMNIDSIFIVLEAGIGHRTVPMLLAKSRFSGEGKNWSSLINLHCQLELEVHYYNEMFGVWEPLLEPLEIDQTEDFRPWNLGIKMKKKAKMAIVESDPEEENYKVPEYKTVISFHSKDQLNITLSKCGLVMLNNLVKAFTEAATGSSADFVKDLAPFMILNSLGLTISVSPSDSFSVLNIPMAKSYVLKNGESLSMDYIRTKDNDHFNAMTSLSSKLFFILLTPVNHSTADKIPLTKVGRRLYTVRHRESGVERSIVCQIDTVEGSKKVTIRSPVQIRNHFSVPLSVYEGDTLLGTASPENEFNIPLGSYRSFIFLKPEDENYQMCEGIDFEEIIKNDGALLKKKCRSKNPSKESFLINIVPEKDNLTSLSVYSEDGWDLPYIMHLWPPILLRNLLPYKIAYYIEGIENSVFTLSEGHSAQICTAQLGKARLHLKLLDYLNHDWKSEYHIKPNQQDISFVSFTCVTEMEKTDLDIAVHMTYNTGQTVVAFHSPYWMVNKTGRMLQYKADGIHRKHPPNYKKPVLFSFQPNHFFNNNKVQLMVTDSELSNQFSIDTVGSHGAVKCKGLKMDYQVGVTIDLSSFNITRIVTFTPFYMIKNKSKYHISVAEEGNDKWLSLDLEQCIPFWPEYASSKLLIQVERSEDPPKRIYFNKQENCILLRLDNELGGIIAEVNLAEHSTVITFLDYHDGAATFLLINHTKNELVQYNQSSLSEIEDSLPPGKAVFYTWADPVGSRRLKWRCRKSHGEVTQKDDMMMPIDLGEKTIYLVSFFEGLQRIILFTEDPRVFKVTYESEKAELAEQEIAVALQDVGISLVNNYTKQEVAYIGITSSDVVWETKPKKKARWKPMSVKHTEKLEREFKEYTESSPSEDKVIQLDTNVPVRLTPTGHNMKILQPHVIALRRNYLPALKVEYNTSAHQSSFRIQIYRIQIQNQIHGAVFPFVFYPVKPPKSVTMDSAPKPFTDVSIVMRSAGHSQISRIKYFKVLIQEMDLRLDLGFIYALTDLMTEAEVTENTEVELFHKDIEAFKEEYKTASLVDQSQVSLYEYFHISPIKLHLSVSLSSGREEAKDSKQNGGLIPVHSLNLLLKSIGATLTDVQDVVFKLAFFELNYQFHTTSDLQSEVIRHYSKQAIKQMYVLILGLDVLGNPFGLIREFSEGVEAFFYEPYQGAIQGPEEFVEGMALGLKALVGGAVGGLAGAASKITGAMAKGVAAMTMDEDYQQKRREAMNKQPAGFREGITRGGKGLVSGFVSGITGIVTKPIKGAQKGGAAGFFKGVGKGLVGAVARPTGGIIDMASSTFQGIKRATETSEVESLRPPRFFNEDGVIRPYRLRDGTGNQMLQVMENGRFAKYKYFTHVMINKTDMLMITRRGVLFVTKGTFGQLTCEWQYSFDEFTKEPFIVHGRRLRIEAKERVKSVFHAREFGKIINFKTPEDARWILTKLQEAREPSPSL

These are yes or no findings as the source states them, for the method shown. Binding seen in cells or lysates may run through a third protein. A yes stands for co-enrichment or nearness to the bait. Other partners may have been found. Sequences can lack the tags named with a protein.

Experiment [1] concerns the target T1, SYNJ2BP fused with BirA*-FLAG (BioID bait) (human) (UniProt P57105).
T1 sequence: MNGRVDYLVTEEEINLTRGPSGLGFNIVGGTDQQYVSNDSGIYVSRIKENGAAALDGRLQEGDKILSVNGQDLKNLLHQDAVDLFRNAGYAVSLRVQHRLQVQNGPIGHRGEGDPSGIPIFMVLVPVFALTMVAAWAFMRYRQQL
The experiment in a line: proximity labelling; BioID in stable inducible Flp-In T-REx 293 cells expressing BirA*-FLAG baits; mass spectrometry of biotinylated preys; SAINTexpress, two biological replicates per bait, 50 negative control runs, BFDR threshold 1%.

Experiment [2] has as its target T2, ESYT1 fused with BirA*-FLAG (BioID bait) (human) (UniProt Q9BSJ8).
T2 sequence: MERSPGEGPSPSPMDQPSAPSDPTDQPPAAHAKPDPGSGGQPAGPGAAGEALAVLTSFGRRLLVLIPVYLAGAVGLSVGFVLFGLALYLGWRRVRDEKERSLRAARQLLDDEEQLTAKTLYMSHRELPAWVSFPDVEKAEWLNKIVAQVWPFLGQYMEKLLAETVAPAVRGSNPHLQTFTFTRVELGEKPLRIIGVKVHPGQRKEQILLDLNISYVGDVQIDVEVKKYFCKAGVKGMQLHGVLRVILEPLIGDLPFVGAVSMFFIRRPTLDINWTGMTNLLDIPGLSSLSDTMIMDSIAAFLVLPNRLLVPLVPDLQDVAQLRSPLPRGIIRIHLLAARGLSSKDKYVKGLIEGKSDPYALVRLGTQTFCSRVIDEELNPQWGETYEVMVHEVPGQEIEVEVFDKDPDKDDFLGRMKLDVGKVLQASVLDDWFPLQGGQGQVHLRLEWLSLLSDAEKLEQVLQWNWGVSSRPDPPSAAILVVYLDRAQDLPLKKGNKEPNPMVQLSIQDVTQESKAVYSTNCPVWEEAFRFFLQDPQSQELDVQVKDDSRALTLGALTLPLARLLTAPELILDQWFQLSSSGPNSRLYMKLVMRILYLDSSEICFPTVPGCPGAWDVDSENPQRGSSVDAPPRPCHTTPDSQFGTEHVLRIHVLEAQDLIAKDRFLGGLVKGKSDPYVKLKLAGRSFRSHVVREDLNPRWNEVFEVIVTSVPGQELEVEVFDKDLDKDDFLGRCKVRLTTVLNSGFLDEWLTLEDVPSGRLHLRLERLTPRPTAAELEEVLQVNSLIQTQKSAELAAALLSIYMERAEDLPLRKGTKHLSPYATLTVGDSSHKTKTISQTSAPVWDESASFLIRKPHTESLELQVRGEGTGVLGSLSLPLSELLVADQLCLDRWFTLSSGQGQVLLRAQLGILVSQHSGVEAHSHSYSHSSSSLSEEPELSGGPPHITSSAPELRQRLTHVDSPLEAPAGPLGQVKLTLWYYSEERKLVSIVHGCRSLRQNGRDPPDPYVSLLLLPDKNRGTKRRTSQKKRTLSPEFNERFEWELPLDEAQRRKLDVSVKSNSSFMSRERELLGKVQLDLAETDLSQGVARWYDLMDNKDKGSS
The description is as above.

The target in another experiment is T3, ESYT1-3xFLAG (human) (UniProt Q9BSJ8).
T3 sequence: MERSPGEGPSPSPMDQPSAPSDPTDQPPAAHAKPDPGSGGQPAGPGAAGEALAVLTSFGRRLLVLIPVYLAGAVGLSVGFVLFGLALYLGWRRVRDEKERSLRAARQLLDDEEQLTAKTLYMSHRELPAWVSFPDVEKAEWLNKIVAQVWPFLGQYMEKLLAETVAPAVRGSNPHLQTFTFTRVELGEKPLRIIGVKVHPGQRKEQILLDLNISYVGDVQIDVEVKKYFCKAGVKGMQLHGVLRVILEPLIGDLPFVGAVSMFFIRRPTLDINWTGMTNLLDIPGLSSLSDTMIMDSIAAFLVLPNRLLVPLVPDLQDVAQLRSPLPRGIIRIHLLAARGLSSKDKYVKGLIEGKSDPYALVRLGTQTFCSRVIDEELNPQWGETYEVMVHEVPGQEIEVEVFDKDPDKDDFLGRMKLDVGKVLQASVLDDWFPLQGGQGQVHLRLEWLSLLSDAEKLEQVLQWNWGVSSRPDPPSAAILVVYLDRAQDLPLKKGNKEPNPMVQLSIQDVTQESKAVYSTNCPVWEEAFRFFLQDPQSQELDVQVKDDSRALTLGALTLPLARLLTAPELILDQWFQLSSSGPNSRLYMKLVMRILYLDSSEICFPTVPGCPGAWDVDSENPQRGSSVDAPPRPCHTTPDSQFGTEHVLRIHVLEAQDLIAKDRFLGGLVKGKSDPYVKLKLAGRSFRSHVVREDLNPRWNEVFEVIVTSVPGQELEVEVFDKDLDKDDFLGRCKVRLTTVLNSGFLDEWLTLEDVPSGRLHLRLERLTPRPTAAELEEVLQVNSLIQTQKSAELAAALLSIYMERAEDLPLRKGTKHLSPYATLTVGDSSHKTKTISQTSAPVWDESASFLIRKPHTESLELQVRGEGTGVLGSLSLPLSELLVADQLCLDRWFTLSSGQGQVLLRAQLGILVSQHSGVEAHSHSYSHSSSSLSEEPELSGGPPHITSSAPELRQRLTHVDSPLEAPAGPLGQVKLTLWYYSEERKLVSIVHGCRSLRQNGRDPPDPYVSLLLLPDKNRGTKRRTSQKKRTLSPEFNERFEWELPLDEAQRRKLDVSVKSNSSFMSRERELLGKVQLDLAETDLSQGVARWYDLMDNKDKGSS
Nature of the experiment: affinity purification with mass spectrometry; heavy membrane fraction of human fibroblasts overexpressing ESYT1-Flag lysed in 10 mM Tris pH 7.5, 150 mM NaCl, 1% DDM; Flag antibody cross-linked to Dynabeads Protein A, overnight at 4°C; washes up to 450 mM NaCl; naked beads as negative control; Orbitrap LC-MS.

Take VPS13A (from UniProt Q96RL7 1-3174): in experiment [1], the binding result is reported as “binds”.

VPS13D (from UniProt Q5THJ4 1-4388): the binding entry in experiment [1] was “binds”.

B1: OSBPL8 (protein, UniProt Q9BZF1 1-889)
chain: MEGGLADGEPDRTSLLGDSKDVLGPSTVVANSDESQLLTPGKMSQRQGKEAYPTPTKDLHQPSLSPASPHSQGFERGKEDISQNKDESSLSMSKSKSESKLYNGSEKDSSTSSKLTKKESLKVQKKNYREEKKRATKELLSTITDPSVIVMADWLKIRGTLKSWTKLWCVLKPGVLLIYKTQKNGQWVGTVLLNACEIIERPSKKDGFCFKLFHPLEQSIWAVKGPKGEAVGSITQPLPSSYLIIRATSESDGRCWMDALELALKCSSLLKRTMIREGKEHDLSVSSDSTHVTFYGLLRANNLHSGDNFQLNDSEIERQHFKDQDMYSDKSDKENDQEHDESDNEVMGKSEESDTDTSERQDDSYIEPEPVEPLKETTYTEQSHEELGEAGEASQTETVSEENKSLIWTLLKQVRPGMDLSKVVLPTFILEPRSFLDKLSDYYYHADFLSEAALEENPYFRLKKVVKWYLSGFYKKPKGLKKPYNPILGETFRCLWIHPRTNSKTFYIAEQVSHHPPISAFYVSNRKDGFCLSGSILAKSKFYGNSLSAILEGEARLTFLNRGEDYVMTMPYAHCKGILYGTMTLELGGTVNITCQKTGYSAILEFKLKPFLGSSDCVNQISGKLKLGKEVLATLEGHWDSEVFITDKKTDNSEVFWNPTPDIKQWRLIRHTVKFEEQGDFESEKLWQRVTRAINAKDQTEATQEKYVLEEAQRQAARDRKTKNEEWSCKLFELDPLTGEWHYKFADTRPWDPLNDMIQFEKDGVIQTKVKHRTPMVSVPKMKHKPTRQQKKVAKGYSSPEPDIQDSSGSEAQSVKPSTRRKKGIELGDIQSSIESIKQTQEEIKRNIMALRNHLVSSTPATDYFLQQKDYFIIFLLILLQVIINFMFK
For the molecule B1, the binding result in experiment [2] is on record as “binds”.

B2: SYNJ2BP (endogenous in human fibroblasts) (protein, UniProt P57105 1-145)
chain: MNGRVDYLVTEEEINLTRGPSGLGFNIVGGTDQQYVSNDSGIYVSRIKENGAAALDGRLQEGDKILSVNGQDLKNLLHQDAVDLFRNAGYAVSLRVQHRLQVQNGPIGHRGEGDPSGIPIFMVLVPVFALTMVAAWAFMRYRQQL
B2: the binding result with ESYT1-3xFLAG (human) is recorded as “binds”.

B3: ESYT2 (endogenous prey in BioID) (protein, UniProt A0FGR8 1-921)
chain: MTANRDAALSSHRHPGCAQRPRTPTFASSSQRRSAFGFDDGNFPGLGERSHAPGSRLGARRRAKTARGLRGHRQRGAGAGLSRPGSARAPSPPRPGGPENPGGVLSVELPGLLAQLARSFALLLPVYALGYLGLSFSWVLLALALLAWCRRSRGLKALRLCRALALLEDEERVVRLGVRACDLPAWVHFPDTERAEWLNKTVKHMWPFICQFIEKLFRETIEPAVRGANTHLSTFSFTKVDVGQQPLRINGVKVYTENVDKRQIILDLQISFVGNCEIDLEIKRYFCRAGVKSIQIHGTMRVILEPLIGDMPLVGALSIFFLRKPLLEINWTGLTNLLDVPGLNGLSDTIILDIISNYLVLPNRITVPLVSEVQIAQLRFPVPKGVLRIHFIEAQDLQGKDTYLKGLVKGKSDPYGIIRVGNQIFQSRVIKENLSPKWNEVYEALVYEHPGQELEIELFDEDPDKDDFLGSLMIDLIEVEKERLLDEWFTLDEVPKGKLHLRLEWLTLMPNASNLDKVLTDIKADKDQANDGLSSALLILYLDSARNLPSGKKISSNPNPVVQMSVGHKAQESKIRYKTNEPVWEENFTFFIHNPKRQDLEVEVRDEQHQCSLGNLKVPLSQLLTSEDMTVSQRFQLSNSGPNSTIKMKIALRVLHLEKRERPPDHQHSAQVKRPSVSKEGRKTSIKSHMSGSPGPGGSNTAPSTPVIGGSDKPGMEEKAQPPEAGPQGLHDLGRSSSSLLASPGHISVKEPTPSIASDISLPIATQELRQRLRQLENGTTLGQSPLGQIQLTIRHSSQRNKLIVVVHACRNLIAFSEDGSDPYVRMYLLPDKRRSGRRKTHVSKKTLNPVFDQSFDFSVSLPEVQRRTLDVAVKNSGGFLSKDKGLLGKVLVALASEELAKGWTQWYDLTEDGTRPQAMT
Take B3: the binding result in experiment [2] is “binds”.

B4: ESYT2 (endogenous in human fibroblasts) (protein, UniProt A0FGR8 1-921)
chain: MTANRDAALSSHRHPGCAQRPRTPTFASSSQRRSAFGFDDGNFPGLGERSHAPGSRLGARRRAKTARGLRGHRQRGAGAGLSRPGSARAPSPPRPGGPENPGGVLSVELPGLLAQLARSFALLLPVYALGYLGLSFSWVLLALALLAWCRRSRGLKALRLCRALALLEDEERVVRLGVRACDLPAWVHFPDTERAEWLNKTVKHMWPFICQFIEKLFRETIEPAVRGANTHLSTFSFTKVDVGQQPLRINGVKVYTENVDKRQIILDLQISFVGNCEIDLEIKRYFCRAGVKSIQIHGTMRVILEPLIGDMPLVGALSIFFLRKPLLEINWTGLTNLLDVPGLNGLSDTIILDIISNYLVLPNRITVPLVSEVQIAQLRFPVPKGVLRIHFIEAQDLQGKDTYLKGLVKGKSDPYGIIRVGNQIFQSRVIKENLSPKWNEVYEALVYEHPGQELEIELFDEDPDKDDFLGSLMIDLIEVEKERLLDEWFTLDEVPKGKLHLRLEWLTLMPNASNLDKVLTDIKADKDQANDGLSSALLILYLDSARNLPSGKKISSNPNPVVQMSVGHKAQESKIRYKTNEPVWEENFTFFIHNPKRQDLEVEVRDEQHQCSLGNLKVPLSQLLTSEDMTVSQRFQLSNSGPNSTIKMKIALRVLHLEKRERPPDHQHSAQVKRPSVSKEGRKTSIKSHMSGSPGPGGSNTAPSTPVIGGSDKPGMEEKAQPPEAGPQGLHDLGRSSSSLLASPGHISVKEPTPSIASDISLPIATQELRQRLRQLENGTTLGQSPLGQIQLTIRHSSQRNKLIVVVHACRNLIAFSEDGSDPYVRMYLLPDKRRSGRRKTHVSKKTLNPVFDQSFDFSVSLPEVQRRTLDVAVKNSGGFLSKDKGLLGKVLVALASEELAKGWTQWYDLTEDGTRPQAMT
On to B4, for which the binding result in the experiment with ESYT1-3xFLAG (human) is given as “binds”.
